According to article PMC12520410, “A FtsZ inhibitor-acinetobactin conjugate with enhanced cellular uptake in Acinetobacter baumannii acts synergistically in combination with PBP3-targeting antibiotics” (PLOS One, 2025):
Results are given in words; binding and its absence hold for the method and conditions named. Some entries that bind do so weakly or less than the wild type.

Key:
[1] = target: A. baumannii FtsZ (A. baumannii) (UniProt V5V8B6); assay: 90°-angle light scattering (polymerization assay); 10 µM AbFtsZ added to 250 µM GTP with DMSO vehicle, 20 µM RUP7 or 40 µM RUP7; 50 mM Tris-HCl (pH 7.6), 50 mM KCl, 5 mM Mg(CH3COO)2; 25 °C; second-order light scattering recorded over 480 s; both purified
[2] = target: A. baumannii FtsZ (A. baumannii) (UniProt V5V8B6); assay: 90°-angle light scattering (polymerization assay); negative control: 10 µM AbFtsZ added to 250 µM GDP in place of GTP, DMSO vehicle; 50 mM Tris-HCl (pH 7.6), 50 mM KCl, 5 mM Mg(CH3COO)2; 25 °C; both purified

B1: A. baumannii FtsZ (protein, UniProt V5V8B6 1-391)
chain: MASFEFIEDELNDGNGQARFTVFGVGGGGGNAVQHMVQSDIQGVKFVCANTDKQALDCMNAPFKIQLGEQSTRGLGAGANPEVGQVAAEESREIIRQHLEGTDMVFVTAGMGGGTGTGAAPVVAEVAKEMGILTVGVVTTPFNFEGRRRQKSAERGIEALEAHVDSLIIIPNQRLLSVYGDISMKDAYKKADDVLLNAVRSIFDLVVNRGHINLDFADLKTAMSTRGYAMMGAGLGRGEDRARQAAEQAIRSPLLDNVNIINAKGVLINITGGDDITLRETEIITDVVNQIVDLDEGEIFYGTVFDPDARDELRVTVIATGLTRNAADAEPRKRNTVSHTSTQSAQSVDEDDVPAINKRQNAENDVNNAPSSTPRSSPMSIQDYLKNQQRK
Q: With B1 as the binder, how does the binding [1] read?
A: Its binding is “binds”.

Q: What about the binding [2] of the same binder?
A: Its binding is “no binding (condition: with 250 µM GDP in place of GTP)”.
